Measured values as given in patent US20250326725A1, “PI4-Kinase Inhibitors and Methods of Using the Same” (The Board of Trustees of the Leland Stanford Junior …, priority 2019, published 2025).
Some of these results come from one statement about several compounds together.

By UniProt entry, the sequences of proteins in these tests, tags left out. Where a name states a change or a piece, a line headed by the entry shows the natural chain unless it says otherwise.
UniProt Q9UBF8: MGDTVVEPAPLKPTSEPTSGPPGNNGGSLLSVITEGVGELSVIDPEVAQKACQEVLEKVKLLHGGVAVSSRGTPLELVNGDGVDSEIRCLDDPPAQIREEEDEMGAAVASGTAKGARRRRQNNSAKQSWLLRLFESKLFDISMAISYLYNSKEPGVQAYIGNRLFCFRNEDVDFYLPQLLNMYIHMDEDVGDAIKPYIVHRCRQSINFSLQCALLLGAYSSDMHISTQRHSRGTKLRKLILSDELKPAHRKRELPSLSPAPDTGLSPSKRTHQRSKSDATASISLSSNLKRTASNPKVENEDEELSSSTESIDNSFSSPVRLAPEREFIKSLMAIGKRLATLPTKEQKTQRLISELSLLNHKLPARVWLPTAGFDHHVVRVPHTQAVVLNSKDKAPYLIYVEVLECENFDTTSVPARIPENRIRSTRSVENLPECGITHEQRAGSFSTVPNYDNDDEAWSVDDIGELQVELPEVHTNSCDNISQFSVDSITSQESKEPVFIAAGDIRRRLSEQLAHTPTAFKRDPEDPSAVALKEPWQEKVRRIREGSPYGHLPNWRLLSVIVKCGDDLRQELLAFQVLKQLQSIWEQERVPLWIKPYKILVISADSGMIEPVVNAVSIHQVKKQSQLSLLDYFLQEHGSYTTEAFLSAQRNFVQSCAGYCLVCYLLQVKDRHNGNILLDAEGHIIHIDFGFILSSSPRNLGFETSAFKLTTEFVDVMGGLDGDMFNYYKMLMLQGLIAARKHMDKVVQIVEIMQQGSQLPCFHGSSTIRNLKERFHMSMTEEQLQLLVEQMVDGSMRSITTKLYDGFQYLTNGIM

Molecular target: PI4KIIIβ (Homo sapiens, UniProt Q9UBF8)
Test: Selectivity against PI4KIIIβ over class I and class III PI3K family members
Assay type: biochemical

COc1ccc(-c2sc(NC(C)C3CCOCC3)nc2C)cc1S(=O)(=O)Nc1ccccc1Cl (stereo not shown) [Compound B]
selectivity against PI4KIIIβ over class I and class III PI3K family members: greater than 1000 fold
